Measured values reported in patent US7994164B2, “Mineralocorticoid receptor antagonists and methods of use” (Eli Lilly and Company, priority 2007, dated 2011).
Some of these results come from one statement about several compounds together.

Each compound was assayed against T1, human MR (mineralocorticoid receptor) (Homo sapiens, UniProt P08235) (assay: Steroid hormone nuclear receptor binding assay (MR binding)). Conditions: HEK293 lysate overexpressing human MR, [3H]-aldosterone; individual values geometric mean of n=2.
T1 construct: expressed in transfected cells; host or cells: HEK293 (lysate, '293-MR lysate')
T1 sequence (P08235 1-984): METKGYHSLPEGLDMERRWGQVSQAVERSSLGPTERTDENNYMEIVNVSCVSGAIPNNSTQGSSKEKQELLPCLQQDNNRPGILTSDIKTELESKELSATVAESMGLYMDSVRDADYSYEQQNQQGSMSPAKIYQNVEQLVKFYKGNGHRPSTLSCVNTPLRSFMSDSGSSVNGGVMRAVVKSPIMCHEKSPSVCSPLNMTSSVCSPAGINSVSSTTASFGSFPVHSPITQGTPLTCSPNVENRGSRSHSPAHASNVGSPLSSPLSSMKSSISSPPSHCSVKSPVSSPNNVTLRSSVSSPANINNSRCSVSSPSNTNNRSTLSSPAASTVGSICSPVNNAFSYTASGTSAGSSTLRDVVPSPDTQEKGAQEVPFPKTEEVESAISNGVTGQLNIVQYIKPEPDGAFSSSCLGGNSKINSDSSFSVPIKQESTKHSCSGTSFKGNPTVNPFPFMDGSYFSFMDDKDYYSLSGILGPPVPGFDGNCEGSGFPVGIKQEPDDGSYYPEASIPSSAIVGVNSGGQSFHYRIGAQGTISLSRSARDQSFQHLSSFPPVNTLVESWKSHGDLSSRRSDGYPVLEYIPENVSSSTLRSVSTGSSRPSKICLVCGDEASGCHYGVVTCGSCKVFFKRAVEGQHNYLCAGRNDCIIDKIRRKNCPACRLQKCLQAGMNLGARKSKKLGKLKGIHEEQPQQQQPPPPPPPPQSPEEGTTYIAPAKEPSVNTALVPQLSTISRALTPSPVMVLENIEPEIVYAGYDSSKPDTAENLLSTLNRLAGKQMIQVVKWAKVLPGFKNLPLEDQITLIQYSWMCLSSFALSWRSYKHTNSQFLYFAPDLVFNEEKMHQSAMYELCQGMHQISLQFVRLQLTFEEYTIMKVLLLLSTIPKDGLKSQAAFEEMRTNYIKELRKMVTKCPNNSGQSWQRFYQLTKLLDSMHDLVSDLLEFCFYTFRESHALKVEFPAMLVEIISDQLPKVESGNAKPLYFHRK
Protocol: Cell lysates from human embryonic kidney HEK293 cells overexpressing human MR (mineralocorticoid receptor), GR (glucocorticoid receptor), AR (androgen receptor), or PR (progesterone receptor) are used for receptor-ligand competition binding assays to determine Ki values.
Briefly, steroid receptor competition binding assays are run in a buffer containing 20 mM HEPES buffer (pH=7.6), 0.2 mM EDTA, 75 mM NaCl, 1.5 mM MgCl2, 20% glycerol, 20 mM sodium molybdate, 0.2 mM DTT (dithiothreitol), 20 μg/mL aprotinin and 20 μg/mL leupeptin (assay buffer). Typically, steroid receptor binding assays include radio-labeled ligands, such as 0.25 nM [^3H]-aldosterone for MR binding, 0.3 nM [^3H]-dexamethasone for GR binding, 0.36 nM [^3H]-methyltrienolone for AR binding, and 0.29 nM [^3H]-methyltrienolone for PR binding, and either 20 μg 293-MR lysate, 20 μg 293-GR lysate, 22 μg 293-AR lysate, or 40 μg 293-PR lysate per well. Assays are typically run in 96-well format. Competing test compounds are added at various concentrations ranging from about 0.01 nM to 10 μM. […] The binding reactions (140 μL) are incubated overnight at 4° C., then 70 μL of cold charcoal-dextran buffer (containing per 50 mL of assay buffer, 0.75 g of charcoal and 0.25 g of dextran) is added to each reaction. Plates are mixed for 8 minutes on an orbital shaker at 4° C. The plates are then centrifuged at 3,000 rpm at 4° C. for 10 minutes. An aliquot of 120 μL of the binding reaction mixture is then transferred to another 96-well plate and 175 μL of Wallac Optiphase Hisafe 3™ scintillation fluid is added to each well. Plates are sealed and shaken vigorously on an orbital shaker. After an incubation of 2 hours, plates are read in a Wallac Microbeta counter.
The Kd for [^3H]-aldosterone for MR binding, [^3H]-dexamethasone for GR binding, [^3H]-methyltrienolone for AR binding, or [^3H]-methyltrienolone for PR binding, is determined by saturation binding. The IC50 values for compounds are converted to Ki using the Cheng-Prusoff equation.
In the case of `CN1C[C@H](O)[C@@H](n2/c(=N/C#N)[nH]c3cc(/C=C4/c5ccc(F)cc5OCc5c(F)cccc54)ccc32)C1` [Example 27, (E)-N-(5-((E)-(3,7-difluorodibenzo[b,e]oxepin-11(6H)-ylidene)methyl)-1-((3S,4S)-4-hydroxy-1-methylpyrrolidin-3-yl)-1H-benzo[d]imidazol-2(3H)-ylidene)cyanamide], the Ki is reported as ≤ 10 nM. With `CN1C[C@H](O)[C@@H](n2/c(=N/C#N)[nH]c3cc(/C=C4\c5ccc(F)cc5COc5cc(F)ccc54)ccc32)C1` [Example 28, (E)-N-(5-((E)-(3,8-difluorodibenzo[b,e]oxepin-11(6H)-ylidene)methyl)-1-((3S,4S)-4-hydroxy-1-methylpyrrolidin-3-yl)-1H-benzo[d]imidazol-2(3H)-ylidene)cyanamide] the Ki was ≤ 10 nM. For `CN1C[C@@H](O)[C@H](n2/c(=N/C#N)[nH]c3cc(/C=C4/c5ccc(F)cc5OCc5c(F)cccc54)ccc32)C1` [Example 29, (E)-N-(5-((E)-(3,7-difluorodibenzo[b,e]oxepin-11(6H)-ylidene)methyl)-1-((3R,4R)-4-hydroxy-1-methylpyrrolidin-3-yl)-1H-benzo[d]imidazol-2(3H)-ylidene)cyanamide], the Ki was ≤ 10 nM. For `CN1C[C@@H](O)[C@@H](n2/c(=N/C#N)[nH]c3cc(/C=C4\c5ccc(F)cc5COc5cc(F)ccc54)ccc32)C1` [Example 30, (E)-N-(5-((E)-(3,8-difluorodibenzo[b,e]oxepin-11(6H)-ylidene)methyl)-1-((3S,4R)-4-hydroxy-1-methylpyrrolidin-3-yl)-1H-benzo[d]imidazol-2(3H)-ylidene)cyanamide], the Ki was ≤ 10 nM. In the case of `CN1C[C@@H](n2/c(=N/C#N)[nH]c3cc(/C=C4/c5ccc(F)cc5OCc5c(F)cccc54)ccc32)[C@@H](O)C1` [Example 31, (E)-N-(5-((E)-(3,7-difluorodibenzo[b,e]oxepin-11(6H)-ylidene)methyl)-1-((3R,4S)-4-hydroxy-1-methylpyrrolidin-3-yl)-1H-benzo[d]imidazol-2(3H)-ylidene)cyanamide], the Ki is reported as ≤ 10 nM. For `C[N+]1([O-])C[C@H](O)[C@@H](n2/c(=N/C#N)[nH]c3cc(/C=C4\c5ccccc5COc5cc(F)ccc54)ccc32)C1` (stereo partly drawn) [Example 32, (E)-N-(5-((E)-3-Fluoro-6H-dibenzo[b,e]oxepin-11-ylidenemethyl)-1-((3S,4S)-4-hydroxy-1-methyl-1-oxy-pyrrolidin-3-yl)-1,3-dihydro-benzoimidazol-2-ylidene)-cyanamide], the Ki was ≤ 10 nM. `CN1CC[C@@H](n2/c(=N/C#N)[nH]c3cc(/C=C4/c5ccc(F)cc5OCc5c(F)cccc54)ccc32)[C@H](O)C1` [Example 34, (E)-N-(5-((E)-3,7-Difluoro-6H-dibenzo[b,e]oxepin-11-ylidenemethyl)-1-((3R,4R)-3-hydroxy-1-methyl-piperidin-4-yl)-1,3-dihydro-benzoimidazol-2-ylidene)-cyanamide] was tested, and the Ki was ≤ 10 nM. In the case of `CN1CC[C@H](n2/c(=N/C#N)[nH]c3cc(/C=C4/c5ccc(F)cc5OCc5c(F)cccc54)ccc32)[C@@H](O)C1` [Example 35, (E)-N-(5-((E)-3,7-Difluoro-6H-dibenzo[b,e]oxepin-11-ylidenemethyl)-1-((3S,4S)-3-hydroxy-1-methyl-piperidin-4-yl)-1,3-dihydro-benzoimidazol-2-ylidene)-cyanamide], the Ki is reported as ≤ 10 nM. With `CN1CC[C@@H](n2/c(=N/C#N)[nH]c3cc(/C=C4\c5ccccc5COc5cc(F)ccc54)ccc32)[C@H](O)C1` [Example 36, (E)-N-(5-((E)-3-Fluoro-6H-dibenzo[b,e]oxepin-11-ylidenemethyl)-1-((3R,4R)-3-hydroxy-1-methyl-piperidin-4-yl)-1,3-dihydro-benzoimidazol-2-ylidene)-cyanamide] the Ki was ≤ 10 nM. With `CN1CC[C@@H](n2/c(=N/C#N)[nH]c3cc(/C=C4\c5ccc(F)cc5COc5cc(F)ccc54)ccc32)[C@H](O)C1` [Example 37, (E)-N-(5-((E)-3,8-Difluoro-6H-dibenzo[b,e]oxepin-11-ylidenemethyl)-1-((3R,4R)-3-hydroxy-1-methyl-piperidin-4-yl)-1,3-dihydro-benzoimidazol-2-ylidene)-cyanamide] the Ki was ≤ 10 nM. With `CN1CC[C@H](n2/c(=N/C#N)[nH]c3cc(/C=C4\c5ccccc5COc5cc(F)ccc54)ccc32)[C@@H](O)C1` [Example 38, (E)-N-(5-((E)-3-Fluoro-6H-dibenzo[b,e]oxepin-11-ylidenemethyl)-1-((3S,4S)-3-hydroxy-1-methyl-piperidin-4-yl)-1,3-dihydro-benzoimidazol-2-ylidene)-cyanamide] the Ki was ≤ 10 nM. For `CN1CC[C@H](n2/c(=N/C#N)[nH]c3cc(/C=C4\c5ccc(F)cc5COc5cc(F)ccc54)ccc32)[C@@H](O)C1` [Example 39, (E)-N-(5-((E)-3,8-Difluoro-6H-dibenzo[b,e]oxepin-11-ylidenemethyl)-1-((3S,4S)-3-hydroxy-1-methyl-piperidin-4-yl)-1,3-dihydro-benzoimidazol-2-ylidene)-cyanamide], the Ki was ≤ 10 nM. `C[C@H](CN1CCOCC1)n1/c(=N/C(N)=O)[nH]c2cc(/C=C3/c4ccc(F)cc4OCc4c(F)cccc43)ccc21` [Example 40, (E)-N-(5-((E)-3,7-Difluoro-6H-dibenzo[b,e]oxepin-11-ylidenemethyl)-1-((R)-1-methyl-2-morpholin-4-yl-ethyl)-1,3-dihydro-benzoimidazol-2-ylidene)-urea] was tested, and the Ki was ≤ 10 nM. `CN1C[C@H](O)[C@@H](n2/c(=N/C(N)=O)[nH]c3cc(/C=C4\c5ccccc5COc5cc(F)ccc54)ccc32)C1` [Example 41, (E)-N-(5-((E)-3-Fluoro-6H-dibenzo[b,e]oxepin-11-ylidenemethyl)-1-((3S,4S)-4-hydroxy-1-methyl-pyrrolidin-3-yl)-1,3-dihydro-benzoimidazol-2-ylidene)-urea] was tested, and the Ki was ≤ 10 nM. For `C[C@H](CN1CCOCC1)n1/c(=N/C(N)=O)[nH]c2cc(/C=C3\c4ccc(F)cc4COc4cc(F)ccc43)ccc21` [Example 43, (E)-N-(5-((E)-3,8-Difluoro-6H-dibenzo[b,e]oxepin-11-ylidenemethyl)-1-((R)-1-methyl-2-morpholin-4-yl-ethyl)-1,3-dihydro-benzoimidazol-2-ylidene)-urea], the Ki was ≤ 10 nM. In the case of `CN1C[C@H](O)[C@@H](n2/c(=N/C(N)=O)[nH]c3cc(/C=C4\c5ccc(F)cc5COc5cc(F)ccc54)ccc32)C1` [Example 44, (E)-N-(5-((E)-3,8-Difluoro-6H-dibenzo[b,e]oxepin-11-ylidenemethyl)-1-((3S,4S)-4-hydroxy-1-methyl-pyrrolidin-3-yl)-1,3-dihydro-benzoimidazol-2-ylidene)-urea], the Ki is reported as ≤ 10 nM. With `CN1C[C@H](O)[C@@H](n2/c(=N/C(N)=O)[nH]c3cc(/C=C4/c5ccc(F)cc5OCc5c(F)cccc54)ccc32)C1` [Example 45, (E)-N-(5-((E)-3,7-Difluoro-6H-dibenzo[b,e]oxepin-11-ylidenemethyl)-1-((3S,4S)-4-hydroxy-1-methyl-pyrrolidin-3-yl)-1,3-dihydro-benzoimidazol-2-ylidene)-urea] the Ki was ≤ 10 nM. With `NC(=O)/N=c1\[nH]c2cc(/C=C3\c4ccc(F)cc4COc4cc(F)ccc43)ccc2n1[C@H]1C[C@@H]2COCCN2C1` [Example 49] the Ki was ≤ 10 nM. With `NC(=O)/N=c1\[nH]c2cc(/C=C3/c4ccc(F)cc4OCc4c(F)cccc43)ccc2n1[C@H]1C[C@@H]2COCCN2C1` [Example 50] the Ki was ≤ 10 nM.
